Assay results published in publication PMC10931150.
No constants are given. Whether binding was seen depends on the method and setting. Binding seen in cells or lysates may run through a third protein. Some binding calls cover weakened binding; strength is not graded here.

By UniProt entry, the sequences of proteins in these tests, tags left out. Where a name states a change or a piece, a line headed by the entry shows the natural chain unless it says otherwise. Chains listed by the source or under a name are the forms on record and can include a tag or linker. Residues count along the entry.
wild type Flag-Strep-tagged NM1 (O00159, form named): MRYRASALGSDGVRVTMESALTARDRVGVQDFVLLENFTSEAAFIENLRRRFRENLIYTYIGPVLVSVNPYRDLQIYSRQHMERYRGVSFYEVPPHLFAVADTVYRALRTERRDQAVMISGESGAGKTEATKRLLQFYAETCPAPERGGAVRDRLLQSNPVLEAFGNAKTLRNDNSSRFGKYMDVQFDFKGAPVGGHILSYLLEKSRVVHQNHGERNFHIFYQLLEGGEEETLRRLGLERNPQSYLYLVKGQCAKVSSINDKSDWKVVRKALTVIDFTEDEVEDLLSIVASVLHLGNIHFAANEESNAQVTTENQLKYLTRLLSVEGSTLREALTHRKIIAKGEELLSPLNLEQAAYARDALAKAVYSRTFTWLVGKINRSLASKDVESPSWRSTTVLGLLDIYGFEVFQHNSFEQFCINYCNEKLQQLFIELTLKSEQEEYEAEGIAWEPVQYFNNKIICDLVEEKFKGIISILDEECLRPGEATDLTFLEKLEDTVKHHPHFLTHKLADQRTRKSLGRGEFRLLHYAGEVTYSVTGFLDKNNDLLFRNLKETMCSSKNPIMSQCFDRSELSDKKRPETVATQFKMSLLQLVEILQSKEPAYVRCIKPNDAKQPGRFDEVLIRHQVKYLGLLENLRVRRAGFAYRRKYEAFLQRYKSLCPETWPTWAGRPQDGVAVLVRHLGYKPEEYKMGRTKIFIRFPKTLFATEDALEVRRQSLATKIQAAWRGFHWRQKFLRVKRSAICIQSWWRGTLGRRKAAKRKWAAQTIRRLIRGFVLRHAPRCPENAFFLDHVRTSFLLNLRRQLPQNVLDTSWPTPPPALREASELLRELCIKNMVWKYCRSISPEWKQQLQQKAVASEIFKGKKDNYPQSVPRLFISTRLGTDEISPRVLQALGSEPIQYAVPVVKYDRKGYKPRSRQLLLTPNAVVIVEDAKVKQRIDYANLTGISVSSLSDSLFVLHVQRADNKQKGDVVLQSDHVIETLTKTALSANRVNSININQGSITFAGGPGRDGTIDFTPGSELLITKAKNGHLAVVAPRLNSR
mutant Flag-Strep-tagged NM1 (K908A) (O00159, form named): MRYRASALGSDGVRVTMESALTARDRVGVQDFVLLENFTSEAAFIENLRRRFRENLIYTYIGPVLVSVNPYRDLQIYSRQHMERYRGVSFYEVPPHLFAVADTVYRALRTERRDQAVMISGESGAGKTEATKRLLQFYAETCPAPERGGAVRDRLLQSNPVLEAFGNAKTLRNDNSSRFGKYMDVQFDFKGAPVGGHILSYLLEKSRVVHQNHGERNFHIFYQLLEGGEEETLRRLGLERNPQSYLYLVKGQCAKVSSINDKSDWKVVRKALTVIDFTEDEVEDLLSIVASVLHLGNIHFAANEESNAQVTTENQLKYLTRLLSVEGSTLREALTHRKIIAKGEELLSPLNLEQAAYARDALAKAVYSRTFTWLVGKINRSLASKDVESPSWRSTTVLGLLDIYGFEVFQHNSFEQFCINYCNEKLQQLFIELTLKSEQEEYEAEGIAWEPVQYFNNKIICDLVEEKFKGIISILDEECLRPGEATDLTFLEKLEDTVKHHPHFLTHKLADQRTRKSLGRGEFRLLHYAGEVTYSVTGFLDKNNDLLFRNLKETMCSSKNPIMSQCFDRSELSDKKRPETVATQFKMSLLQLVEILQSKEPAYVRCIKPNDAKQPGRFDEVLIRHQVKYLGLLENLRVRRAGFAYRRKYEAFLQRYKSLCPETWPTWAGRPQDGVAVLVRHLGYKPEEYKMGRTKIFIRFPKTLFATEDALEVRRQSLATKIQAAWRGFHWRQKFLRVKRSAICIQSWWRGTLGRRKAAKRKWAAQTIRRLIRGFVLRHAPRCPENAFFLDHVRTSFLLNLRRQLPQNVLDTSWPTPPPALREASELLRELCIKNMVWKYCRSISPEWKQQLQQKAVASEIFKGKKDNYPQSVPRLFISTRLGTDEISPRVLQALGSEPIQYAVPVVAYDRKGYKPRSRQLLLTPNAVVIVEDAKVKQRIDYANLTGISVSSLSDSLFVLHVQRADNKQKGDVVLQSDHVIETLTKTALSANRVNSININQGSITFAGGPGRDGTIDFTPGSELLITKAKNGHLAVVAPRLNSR
lamin A (P02545, residues 1-646): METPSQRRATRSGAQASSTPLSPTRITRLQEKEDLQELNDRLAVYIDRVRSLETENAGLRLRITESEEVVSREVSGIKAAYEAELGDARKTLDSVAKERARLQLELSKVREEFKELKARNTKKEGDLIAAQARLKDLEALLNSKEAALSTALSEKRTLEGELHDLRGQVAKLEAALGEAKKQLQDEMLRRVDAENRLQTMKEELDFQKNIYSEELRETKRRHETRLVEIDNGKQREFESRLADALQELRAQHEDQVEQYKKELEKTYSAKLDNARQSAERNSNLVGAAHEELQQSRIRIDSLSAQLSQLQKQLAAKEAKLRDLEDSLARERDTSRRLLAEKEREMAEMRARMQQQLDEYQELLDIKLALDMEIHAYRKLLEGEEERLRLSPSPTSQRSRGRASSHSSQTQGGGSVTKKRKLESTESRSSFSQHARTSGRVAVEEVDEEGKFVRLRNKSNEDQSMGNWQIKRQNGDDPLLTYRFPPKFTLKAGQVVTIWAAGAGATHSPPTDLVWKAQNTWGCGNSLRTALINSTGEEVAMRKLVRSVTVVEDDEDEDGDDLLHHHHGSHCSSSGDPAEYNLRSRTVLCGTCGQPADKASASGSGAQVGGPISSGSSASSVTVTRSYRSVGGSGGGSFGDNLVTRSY
lamin C (P02545-2, form named): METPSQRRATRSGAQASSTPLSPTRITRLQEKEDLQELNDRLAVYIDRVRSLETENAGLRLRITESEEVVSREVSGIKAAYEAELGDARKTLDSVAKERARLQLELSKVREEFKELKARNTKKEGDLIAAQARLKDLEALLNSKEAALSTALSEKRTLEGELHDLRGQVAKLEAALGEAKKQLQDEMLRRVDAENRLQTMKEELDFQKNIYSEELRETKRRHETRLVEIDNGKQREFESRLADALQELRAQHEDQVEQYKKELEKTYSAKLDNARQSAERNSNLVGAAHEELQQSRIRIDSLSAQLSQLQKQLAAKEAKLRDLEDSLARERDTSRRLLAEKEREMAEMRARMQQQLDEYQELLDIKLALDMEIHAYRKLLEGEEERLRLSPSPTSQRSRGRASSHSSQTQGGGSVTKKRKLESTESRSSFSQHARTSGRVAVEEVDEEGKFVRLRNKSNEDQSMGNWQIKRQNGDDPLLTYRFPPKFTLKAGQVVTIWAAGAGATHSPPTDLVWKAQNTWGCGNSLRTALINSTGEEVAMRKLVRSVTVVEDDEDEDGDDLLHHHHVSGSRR

Tests used:
[1] = biological target: nuclear myosin 1 (human (endogenous in HeLa)) (UniProt O00159); test: co-IP; anti-NM1 antibody on magnetic protein G beads, HeLa nuclear extract in 1x RIPA buffer, 2 h at 4 °C; SDS-PAGE and immunoblot with anti-lamin A/C
[2] = biological target: wild type Flag-Strep-tagged NM1 (UniProt O00159); test: pull-down; pull-down through the Strep tag of WT-NM1 or mut-NM1 from lysates of transfected HeLa cells (RIPA buffer, sonicated); two-dimensional electrophoresis and immunoblot with lamin A/C antibody
[3] = biological target: mutant Flag-Strep-tagged NM1 (K908A) (UniProt O00159); test: as above

binding [1] | binding [2] | binding [3] | Substance
binds | binds |  | lamin A (from UniProt P02545 1-646)
binds | binds | binds | lamin C (from UniProt P02545-2 1-572)
